Test results taken from PubChem BioAssay (EPA / NIEHS).
Several values for one entry are separate records, joined by “and”; a condition that tells them apart may be missing. Equal entries are not always repeated. The inconclusive results got no clear call from the source; some entries with a clear call stand among them for comparison. For some of these results: A potency beside an inconclusive call is a rough fit, not a confirmed value. Activity calls are given as the source filed them. How the source made its calls: active means hit-call score of the fitted dose curve at least 0.9, where 1 is the maximum; inconclusive means response in the unintended direction; inactive means score below 0.9.

Amino acid sequences for entries named in this document (tags omitted). A change or cut given only in a name is not applied to a line headed by its entry.
UniProt P04386, whole entry, looked up: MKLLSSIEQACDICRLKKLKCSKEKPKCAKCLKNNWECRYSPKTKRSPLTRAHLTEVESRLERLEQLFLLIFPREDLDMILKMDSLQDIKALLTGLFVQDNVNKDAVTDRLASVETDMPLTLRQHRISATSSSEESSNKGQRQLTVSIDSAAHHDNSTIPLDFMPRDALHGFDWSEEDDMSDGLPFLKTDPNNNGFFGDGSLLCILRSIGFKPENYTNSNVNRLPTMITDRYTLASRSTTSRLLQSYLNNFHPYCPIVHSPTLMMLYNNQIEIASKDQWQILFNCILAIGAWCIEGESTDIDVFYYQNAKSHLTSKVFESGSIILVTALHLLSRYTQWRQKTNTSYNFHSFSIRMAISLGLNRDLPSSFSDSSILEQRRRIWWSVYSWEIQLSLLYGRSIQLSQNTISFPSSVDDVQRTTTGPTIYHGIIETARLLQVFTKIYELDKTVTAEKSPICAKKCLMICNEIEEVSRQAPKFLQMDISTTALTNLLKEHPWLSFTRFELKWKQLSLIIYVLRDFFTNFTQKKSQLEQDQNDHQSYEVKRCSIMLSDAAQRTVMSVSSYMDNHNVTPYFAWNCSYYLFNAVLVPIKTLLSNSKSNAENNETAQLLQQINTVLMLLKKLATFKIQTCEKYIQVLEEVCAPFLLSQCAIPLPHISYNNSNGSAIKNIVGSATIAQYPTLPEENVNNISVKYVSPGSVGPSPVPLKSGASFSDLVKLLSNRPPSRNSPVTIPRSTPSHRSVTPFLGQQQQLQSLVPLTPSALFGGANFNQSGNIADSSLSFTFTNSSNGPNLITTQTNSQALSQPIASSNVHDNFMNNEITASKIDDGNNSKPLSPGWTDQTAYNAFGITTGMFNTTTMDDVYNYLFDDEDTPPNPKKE
UniProt P57717: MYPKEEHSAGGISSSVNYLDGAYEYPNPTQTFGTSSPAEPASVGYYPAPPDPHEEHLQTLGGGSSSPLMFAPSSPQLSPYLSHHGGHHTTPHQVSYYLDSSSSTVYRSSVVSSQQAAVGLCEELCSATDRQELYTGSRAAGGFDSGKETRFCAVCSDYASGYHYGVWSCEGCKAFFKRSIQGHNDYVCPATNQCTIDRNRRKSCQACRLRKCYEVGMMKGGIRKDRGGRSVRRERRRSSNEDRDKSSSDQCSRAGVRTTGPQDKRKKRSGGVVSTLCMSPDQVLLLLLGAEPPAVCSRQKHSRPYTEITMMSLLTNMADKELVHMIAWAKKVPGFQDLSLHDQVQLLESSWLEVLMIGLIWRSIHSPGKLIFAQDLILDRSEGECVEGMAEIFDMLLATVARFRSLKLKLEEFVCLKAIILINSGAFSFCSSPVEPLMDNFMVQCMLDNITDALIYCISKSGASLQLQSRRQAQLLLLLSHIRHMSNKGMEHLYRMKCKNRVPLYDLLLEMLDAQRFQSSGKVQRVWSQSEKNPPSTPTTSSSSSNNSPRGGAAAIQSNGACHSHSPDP
UniProt Q98867: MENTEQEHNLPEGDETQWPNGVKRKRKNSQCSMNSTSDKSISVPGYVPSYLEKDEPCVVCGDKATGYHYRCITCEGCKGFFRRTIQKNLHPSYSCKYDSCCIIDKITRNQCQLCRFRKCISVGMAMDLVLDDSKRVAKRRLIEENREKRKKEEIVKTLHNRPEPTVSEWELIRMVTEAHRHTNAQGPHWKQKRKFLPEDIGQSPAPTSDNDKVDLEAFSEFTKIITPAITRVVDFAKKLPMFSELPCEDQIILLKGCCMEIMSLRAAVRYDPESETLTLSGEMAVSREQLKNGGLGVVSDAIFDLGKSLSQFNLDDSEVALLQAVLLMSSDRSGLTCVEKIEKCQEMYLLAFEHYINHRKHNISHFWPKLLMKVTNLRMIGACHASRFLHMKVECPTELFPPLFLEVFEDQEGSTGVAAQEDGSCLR
UniProt Q9PVE4: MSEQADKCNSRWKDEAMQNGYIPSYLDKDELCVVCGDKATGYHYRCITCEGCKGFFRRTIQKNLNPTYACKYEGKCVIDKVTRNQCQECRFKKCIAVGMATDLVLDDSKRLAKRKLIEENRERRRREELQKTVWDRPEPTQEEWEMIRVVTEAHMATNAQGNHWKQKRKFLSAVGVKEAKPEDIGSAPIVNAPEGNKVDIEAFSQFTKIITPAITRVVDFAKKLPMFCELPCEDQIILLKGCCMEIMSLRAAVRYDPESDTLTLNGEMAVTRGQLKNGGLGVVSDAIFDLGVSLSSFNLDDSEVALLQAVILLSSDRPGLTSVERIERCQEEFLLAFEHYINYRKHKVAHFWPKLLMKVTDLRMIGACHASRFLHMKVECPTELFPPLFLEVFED
UniProt P10828: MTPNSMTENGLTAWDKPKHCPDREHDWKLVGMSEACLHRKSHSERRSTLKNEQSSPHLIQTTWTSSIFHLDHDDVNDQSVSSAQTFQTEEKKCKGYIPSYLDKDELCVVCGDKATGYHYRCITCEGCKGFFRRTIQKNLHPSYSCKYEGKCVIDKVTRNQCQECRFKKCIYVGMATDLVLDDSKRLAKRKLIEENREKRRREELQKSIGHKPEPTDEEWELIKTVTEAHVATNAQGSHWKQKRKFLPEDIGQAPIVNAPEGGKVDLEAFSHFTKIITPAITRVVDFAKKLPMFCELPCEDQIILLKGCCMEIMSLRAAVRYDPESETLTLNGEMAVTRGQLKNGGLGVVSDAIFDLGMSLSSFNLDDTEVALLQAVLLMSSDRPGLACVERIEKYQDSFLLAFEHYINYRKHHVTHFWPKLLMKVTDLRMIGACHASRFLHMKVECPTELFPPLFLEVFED
UniProt P06212, whole entry, looked up: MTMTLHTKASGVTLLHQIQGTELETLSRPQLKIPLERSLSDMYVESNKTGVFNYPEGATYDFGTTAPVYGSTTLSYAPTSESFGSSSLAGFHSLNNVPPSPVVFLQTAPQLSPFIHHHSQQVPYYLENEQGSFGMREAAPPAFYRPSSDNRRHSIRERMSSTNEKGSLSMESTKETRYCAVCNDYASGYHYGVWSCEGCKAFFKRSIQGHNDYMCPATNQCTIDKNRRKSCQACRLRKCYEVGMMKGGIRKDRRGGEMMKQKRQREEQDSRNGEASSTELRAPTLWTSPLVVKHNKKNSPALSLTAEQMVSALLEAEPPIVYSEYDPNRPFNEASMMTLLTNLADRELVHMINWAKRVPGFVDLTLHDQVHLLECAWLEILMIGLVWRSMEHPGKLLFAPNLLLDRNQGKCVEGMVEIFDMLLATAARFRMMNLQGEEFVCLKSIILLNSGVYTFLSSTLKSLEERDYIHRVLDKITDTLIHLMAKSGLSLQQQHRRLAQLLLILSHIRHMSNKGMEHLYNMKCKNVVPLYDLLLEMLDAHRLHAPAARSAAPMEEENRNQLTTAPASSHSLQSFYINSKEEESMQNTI

How the values were obtained:
[1] = ATG_XTT_Cytotoxicity_XSP1: Cytotoxicity Assessment in the Attagene TRANS-FACTORIAL Multi-Species (XSP1) HepG2 Assay (AID 2283810)
How it was run: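 XTT viability readout taken at 24 hours post-dosing in HepG2 liver cells co-treated with 3 nM 6-alpha-fluorotestosterone. Signal loss relative to DMSO controls reflects cytotoxicity.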

[2] = target: GAL4 Transcription Factor (Internal Marker), GAL4 (gene 855828) (UniProt P04386); experiment: ATG_GAL4_XSP2: Attagene TRANS-FACTORIAL Multi-Species (XSP2) HepG2 Assay for GAL4 Transcription Factor (Internal Marker) (AID 2283814);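 further: GAL4 reporter mRNA background control in MRTU transfected cells not a receptor target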
How it was run: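 Background-control readout: gain-of-signal fitted against DMSO. After 24 h exposure of transfected HepG2 (MRTU, GAL4-UAS reporters; 3 nM 6-alpha-fluorotestosterone, 1.5 nM norgestrel present), transcripts quantified by RT-PCR and capillary electrophoresis fluorescence.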

[3] = test system: turtle Androgen Receptor (AR), gene 101947425; experiment: ATG_trAR_XSP2: Attagene TRANS-FACTORIAL Multi-Species (XSP2) HepG2 Assay for turtle Androgen Receptor (AR) (AID 2283815);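 on AC50: potency for gain of reporter signal meaning activation above DMSO baseline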
How it was run: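 Reporter transcripts were quantified via RT-PCR and capillary electrophoresis and fitted upward against DMSO. Transiently transfected human HepG2 cells carrying NR-Gal4 chimeras were exposed 24 h, with 3 nM 6-alpha-fluorotestosterone plus 1.5 nM norgestrel added.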

[4] = target: zebrafish Estrogen Receptor (ER1), esr1 (gene 259252) (UniProt P57717); experiment: ATG_zfER1_XSP2: Attagene TRANS-FACTORIAL Multi-Species (XSP2) HepG2 Assay for zebrafish Estrogen Receptor (ER1) (AID 2283816)
How it was run: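 After 24 h compound exposure, RNA from transfected HepG2 cells was reverse-transcribed and reporter transcripts resolved by capillary electrophoresis. The TRANS format reads exogenous zebrafish ER1-Gal4 chimera activity on GAL4-UAS elements; gain of signal against DMSO.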

[5] = test system: chicken Androgen Receptor (AR), gene 422165; experiment: ATG_chAR_XSP2: Attagene TRANS-FACTORIAL Multi-Species (XSP2) HepG2 Assay for chicken Androgen Receptor (AR) (AID 2283819);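 further: hits raise reporter mRNA above DMSO so potency is for activation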
How it was run: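 Readout is reporter mRNA induction via RT-PCR/capillary electrophoresis after 24 h chemical exposure, positive direction relative to DMSO. Transiently transfected HepG2 express chimeric chicken AR–GAL4; AR stimulated by 3 nM 6-alpha-fluorotestosterone and 1.5 nM norgestrel.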

[6] = test system: frog Androgen Receptor (AR), gene 399456; experiment: ATG_frAR_XSP2: Attagene TRANS-FACTORIAL Multi-Species (XSP2) HepG2 Assay for frog Androgen Receptor (AR) (AID 2283824);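 further: reporter mRNA from GAL4-UAS units driven by Xenopus AR-Gal4 chimera; actives raise reporter signal above DMSO so AC50 reflects agonist-like induction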
How it was run: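 Reporter transcript induction, read by RT-PCR with fluorescent capillary electrophoresis, in human liver HepG2 cells carrying an exogenous Xenopus AR-Gal4 fusion and GAL4-driven reporters; chemical exposure 24 hours, activity scored upward against DMSO controls.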

[7] = ATG_M_32_XSP2: Attagene TRANS-FACTORIAL Multi-Species (XSP2) HepG2 Assay for M19 Transcription Factor (Internal Marker) (AID 2283826)
How it was run: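 An internal background marker among multiplexed transfected reporters in HepG2 liver cells was measured 24 h after dosing. Androgen receptor stimulation came from 3 nM 6-alpha-fluorotestosterone and 1.5 nM norgestrel.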

[8] = test system: frog Estrogen Receptor (ER2), gene 100174814; experiment: ATG_frER2_XSP2: Attagene TRANS-FACTORIAL Multi-Species (XSP2) HepG2 Assay for frog Estrogen Receptor (ER2) (AID 2283828)
How it was run: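 Read-out: reporter transcript levels by RT-PCR with 6-FAM primer extension, HpaI digestion and capillary electrophoresis, scored as induction over DMSO control. Transfected HepG2 carrying Xenopus ER2–GAL4 chimera; compounds incubated 24 h.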

[9] = target: zebrafish Thyroid Hormone Receptor alpha (TRa), thraa (gene 30670) (UniProt Q98867); experiment: ATG_zfTRa_XSP1: Attagene TRANS-FACTORIAL Multi-Species (XSP1) HepG2 Assay for zebrafish Thyroid Hormone Receptor alpha (TRa) (AID 2283807)
How it was run: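 Reporter transcripts driven by a chimeric zebrafish TRa–Gal4 protein were measured by RT-PCR with fluorescent labelling and capillary electrophoresis. These came from transiently transfected HepG2 cells after 24 h chemical exposure, with 3 nM 6-alpha-fluorotestosterone added; baseline was DMSO.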

[10] = target: zebrafish Thyroid Hormone Receptor beta (TRb), thrb (gene 30607) (UniProt Q9PVE4); experiment: ATG_zfTRb_XSP1: Attagene TRANS-FACTORIAL Multi-Species (XSP1) HepG2 Assay for zebrafish Thyroid Hormone Receptor beta (TRb) (AID 2283809)
How it was run: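 HepG2 cells transiently transfected with multiplexed GAL4-UAS reporter units expressing chimeric zebrafish TRb–Gal4. Dosed 24 h with 3 nM 6-alpha-fluorotestosterone present; reporter mRNA measured by RT-PCR, HpaI digestion and capillary electrophoresis; gain of signal versus DMSO.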

[11] = test system: turtle Estrogen Receptor (ERa), gene 101933533; experiment: ATG_trERa_XSP2: Attagene TRANS-FACTORIAL Multi-Species (XSP2) HepG2 Assay for turtle Estrogen Receptor (ERa) (AID 2283812);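 further: actives raise reporter signal above DMSO so AC50 reflects agonist activity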
How it was run: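 Readout is reporter mRNA quantified by RT-PCR with capillary electrophoresis after 24 h compound exposure, increase relative to DMSO. Uses transiently transfected human HepG2 liver cells carrying a chimeric turtle ERa-Gal4 receptor driving GAL4-UAS reporters.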

[12] = test system: zebrafish Estrogen Receptor (ER2a), gene 317734; experiment: ATG_zfER2a_XSP2: Attagene TRANS-FACTORIAL Multi-Species (XSP2) HepG2 Assay for zebrafish Estrogen Receptor (ER2a) (AID 2283818);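 further: hits raise reporter mRNA so AC50 reflects activation of zebrafish ER2a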
How it was run: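 Multiplexed trans-reporter readout: RT-PCR then capillary electrophoresis of reporter transcripts after 24 h compound treatment. Human HepG2 carries transfected zebrafish ER2a-Gal4 chimera; 3 nM 6-alpha-fluorotestosterone plus 1.5 nM norgestrel present. Induction scored against DMSO.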

[13] = test system: zebrafish Androgen Receptor (AR), gene 100005148; experiment: ATG_zfAR_XSP2: Attagene TRANS-FACTORIAL Multi-Species (XSP2) HepG2 Assay for zebrafish Androgen Receptor (AR) (AID 2283825);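 further: hits raise reporter mRNA above DMSO so AC50 reflects agonist-type gain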
How it was run: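 After 24 h compound exposure in medium with 3 nM 6-alpha-fluorotestosterone plus 1.5 nM norgestrel, HepG2 cells carrying zebrafish AR–GAL4 reporter constructs were assessed for reporter mRNA gain by RT-PCR and capillary electrophoresis.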

[14] = target: human Thyroid hormone Receptor beta (TRb), THRB (gene 7068) (UniProt P10828); experiment: ATG_hTRb_XSP1: Attagene TRANS-FACTORIAL Multi-Species (XSP1) HepG2 Assay for human Thyroid hormone Receptor beta (TRb) (AID 2283808)
How it was run: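 Readout is reporter mRNA induction measured by RT-PCR, fluorescent labelling and capillary electrophoresis, fitted upward relative to DMSO. Transiently transfected human HepG2 cells expressing NR-Gal4 chimeras were dosed for 24 h, medium containing 3 nM 6-alpha-fluorotestosterone.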

[15] = target: chicken Estrogen Receptor (ERa), ESR1 (gene 396099) (UniProt P06212); experiment: ATG_chERa_XSP2: Attagene TRANS-FACTORIAL Multi-Species (XSP2) HepG2 Assay for chicken Estrogen Receptor (ERa) (AID 2283817);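 further: actives raise reporter signal above DMSO so AC50 reflects ER activation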
How it was run: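 Reporter mRNA induction read by RT-PCR, fluorescent labelling and capillary electrophoresis after 24 h exposure; positive-direction fit against DMSO baseline. HepG2 cells transfected with multiplexed GAL4-UAS units including chicken ERa chimera; medium contained 3 nM 6-alpha-fluorotestosterone plus 1.5 nM norgestrel.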

[16] = test system: frog Estrogen Receptor (ER), gene 398734; experiment: ATG_frER1_XSP2: Attagene TRANS-FACTORIAL Multi-Species (XSP2) HepG2 Assay for frog Estrogen Receptor (ER) (AID 2283821);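 further: hits raise reporter mRNA above DMSO baseline so potency means agonist or activator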
How it was run: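 HepG2 cells transiently transfected with multiplexed GAL4-UAS reporter units expressing chimeric NR-Gal4 proteins (TRANS format) were dosed for 24 h. Reporter mRNA was quantified by RT-PCR, FAM primer extension, HpaI digestion and capillary electrophoresis; gain of signal relative to DMSO.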

[17] = ATG_M_06_XSP2: Attagene TRANS-FACTORIAL Multi-Species (XSP2) HepG2 Assay for M06 Transcription Factor (Internal Marker) (AID 2283811);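 on outcome: internal background marker reporter mRNA measured by RT-PCR and capillary electrophoresis; hits are increases in signal above the DMSO baseline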
How it was run: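 Internal-marker reporter transcript, quantified by RT-PCR, 6-FAM labelling, HpaI digestion and capillary electrophoresis, 24 hours after dosing transfected HepG2 cells with 3 nM 6-alpha-fluorotestosterone and 1.5 nM norgestrel present; DMSO baseline.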

SMILES: C#C[C@]1(O)CC[C@H]2[C@@H]3CCC4=CC(=O)CC[C@@H]4[C@H]3CC[C@@]21CC
- AC50 [1]: inconclusive: 1 µM and inconclusive: 100 nM
- outcome [2]: inactive
- AC50 [3]: inconclusive: 100 nM
- outcome [3]: inactive
- AC50 [4]: inconclusive: 0.1 µM
- AC50 [5]: inconclusive: 2.16 nM and inconclusive: 47.1 nM
- AC50 [6]: active: 208 nM and inconclusive: 100 nM
- outcome [7]: inactive
- AC50 [8]: inconclusive: 0.1 µM
- outcome [8]: inactive

SMILES: Cc1c2ccccc2c(C)c2c1ccc1ccccc12
- AC50 [9]: inconclusive: 8.33 µM
- AC50 [10]: active: 60.9 µM
- AC50 [1]: active: 33.2 µM
- AC50 [11]: active: 1.53 µM
- outcome [2]: inactive
- outcome [3]: inactive
- outcome [12]: inactive
- outcome [6]: inactive
- AC50 [13]: inconclusive: 33.4 µM
- outcome [7]: inactive

SMILES: CCN(CC)CCOc1ccc(C(=C(Cl)c2ccccc2)c2ccccc2)cc1
- AC50 [9]: active: 2.96 µM
- AC50 [14]: active: 2.02 µM
- AC50 [10]: active: 1.57 µM
- AC50 [11]: inconclusive: 28.9 nM and inconclusive: 51.2 nM
- AC50 [3]: inconclusive: 11.1 µM and inconclusive: 377 nM
- AC50 [15]: inconclusive: 27.8 nM and inconclusive: 19.7 nM
- AC50 [16]: inconclusive: 8.95 nM and inconclusive: 269 nM
- AC50 [6]: inconclusive: 4.75 µM and inconclusive: 5.44 µM
- outcome [7]: inactive
- AC50 [8]: inconclusive: 18.2 µM
- outcome [8]: inactive

SMILES: O=C(c1ccccc1)c1ccc(O)cc1O
- outcome [10]: inactive
- AC50 [1]: inconclusive: 10 µM
- outcome [17]: inactive
- outcome [2]: inactive
- AC50 [3]: inconclusive: 10000 nM
- outcome [6]: inactive
- AC50 [7]: inconclusive: 0.754 µM
